According to US20100035257A1:
Where a chain is given by its changes, count along the chain named. Names may count otherwise. No constants are given. Whether binding was seen depends on the method and setting. For part of these data: In cells and extracts the contact can be indirect. Some entries that bind do so weakly or less than the wild type.

Protein sequences, listed by entry. Tags and fused reporters are not part of them. Lines headed by an entry give the natural chain unless they say otherwise; changes in a name come on top.
UniProt Q9H3D4: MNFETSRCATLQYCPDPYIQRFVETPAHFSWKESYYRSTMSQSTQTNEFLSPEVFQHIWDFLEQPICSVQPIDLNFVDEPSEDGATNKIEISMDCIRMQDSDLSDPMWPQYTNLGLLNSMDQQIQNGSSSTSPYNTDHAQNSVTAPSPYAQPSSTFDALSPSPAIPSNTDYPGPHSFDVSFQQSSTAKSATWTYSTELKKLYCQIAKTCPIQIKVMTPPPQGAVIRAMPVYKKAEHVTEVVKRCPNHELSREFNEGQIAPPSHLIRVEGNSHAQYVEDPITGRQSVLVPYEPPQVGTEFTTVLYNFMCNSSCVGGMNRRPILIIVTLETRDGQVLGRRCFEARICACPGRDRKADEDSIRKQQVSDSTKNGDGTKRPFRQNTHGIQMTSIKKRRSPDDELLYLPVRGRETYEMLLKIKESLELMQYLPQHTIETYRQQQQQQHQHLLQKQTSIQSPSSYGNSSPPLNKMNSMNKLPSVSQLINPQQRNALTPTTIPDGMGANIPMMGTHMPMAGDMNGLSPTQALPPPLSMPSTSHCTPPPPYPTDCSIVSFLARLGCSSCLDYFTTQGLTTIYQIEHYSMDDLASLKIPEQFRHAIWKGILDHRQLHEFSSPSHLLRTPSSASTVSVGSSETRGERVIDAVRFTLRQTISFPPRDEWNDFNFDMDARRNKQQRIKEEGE

Columns and labels:
[1] = target: T1, ΔNp63α (human) (UniProt Q9H3D4); assay: co-IP after STI-571 pretreatment and cisplatin
T1 sequence: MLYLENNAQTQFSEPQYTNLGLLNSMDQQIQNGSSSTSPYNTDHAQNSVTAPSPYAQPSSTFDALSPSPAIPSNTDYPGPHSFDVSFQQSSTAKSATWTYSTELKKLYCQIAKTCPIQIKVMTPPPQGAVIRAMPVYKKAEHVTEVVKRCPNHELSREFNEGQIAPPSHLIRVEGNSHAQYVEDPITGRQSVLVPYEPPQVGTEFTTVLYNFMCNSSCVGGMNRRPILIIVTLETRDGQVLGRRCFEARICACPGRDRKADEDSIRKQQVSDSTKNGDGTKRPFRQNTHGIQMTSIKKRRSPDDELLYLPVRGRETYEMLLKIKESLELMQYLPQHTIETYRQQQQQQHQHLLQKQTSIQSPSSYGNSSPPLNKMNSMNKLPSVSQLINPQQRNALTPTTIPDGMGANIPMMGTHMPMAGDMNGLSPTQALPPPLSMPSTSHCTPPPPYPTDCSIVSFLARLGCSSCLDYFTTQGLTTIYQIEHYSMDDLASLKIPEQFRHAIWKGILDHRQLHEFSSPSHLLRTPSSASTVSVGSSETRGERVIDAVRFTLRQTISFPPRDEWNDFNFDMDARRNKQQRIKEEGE

[2] = target: T1, ΔNp63α (human); assay: IP for p63 or p73 with immunoblot of IP product and post-IP supernatant; HCC-1937 (11A), with similar quantitative binding in MDA-MB-468 (11B)
[3] = target: T1, ΔNp63α (human); assay: IP for p63 with immunoblot, cisplatin-treated cultures (IC70 for 6 hours), HCC-1937 and MDA-MB-468
[4] = target: T1, ΔNp63α (human); assay: co-immunoprecipitation of endogenous proteins and immunodepletion, HCC-1937 and T47D lysates
[5] = target: T1, ΔNp63α (human); assay: co-IP and post-IP supernatants, cisplatin-treated against untreated cells
[6] = target: T1, ΔNp63α (human); assay: co-immunoprecipitation of endogenous proteins and immunodepletion, HCC-1937 and MDA-MB-468 lysates
[7] = target: T1, ΔNp63α (human); assay: co-IP after imatinib pretreatment and cisplatin
[8] = target: T1, ΔNp63α (human); assay: IP for p63 or p73 with immunoblot, with or without imatinib and cisplatin
[9] = target: T1, ΔNp63α (human); assay: co-IP after cisplatin treatment (data not shown)

Measured: binding

B1: TAp73 (endogenous) (protein)
chain: MAQSTATSPDGGTTFEHLWSSLEPDSTYFDLPQSSRGNNEVVGGTDSSMDVFHLEGMTTSVMAQFNLLSSTMDQMSSRAASASPYTPEHAASVPTHSPYAQPSSTFDTMSPAPVIPSNTDYPGPHHFEVTFQQSSTAKSATWTYSPLLKKLYCQIAKTCPIQIKVSTPPPPGTAIRAMPVYKKAEHVTDVVKRCPNHELGRDFNEGQSAPASHLIRVEGNNLSQYVDDPVTGRQSVVVPYEPPQVGTEFTTILYNFMCNSSCVGGMNRRPILIIITLEMRDGQVLGRRSFEGRICACPGRDRKADEDHYREQQALNESSAKNGAASKRAFKQSPPAVPALGAGVKKRRHGDEDTYYLQVRGRENFEILMKLKESLELMELVPQPLVDSYRQQQQLLQRPSHLQPPSYGPVLSPMNKVHGGMNKLPSVNQLVGQPPPHSSAATPNLGPVGPGMLNNHGHAVPANGEMSSSHSAQSMVSGSHCTPPPPYHADPSLVSFLTGLGCPNCIEYFTSQGLQSIYHLQNLTIEDLGALKIPEQYRMTIWRGLQDLKQGHDYSTAQQLLRSSNAATISIGGSGELQRQRVMEAVHFRVRHTITIPNRGGPGGGPDEWADFGFDLPDCKARKQPIKEEFTEAEIH
not listed: [9]
binds: all other assays above

B2: Y121F TAp73 (protein)
chain: B1 chain with Y121F
binds: [9]
